Binding signal data for 54 sequences are collected here from article PMC7819943, “Rice protein-binding microarrays: a tool to detect cis-acting elements near promoter regions in rice”.

Sequences of proteins named here, by UniProt entry; tags and fusion partners are left off.
UniProt Q0JBA9, entry or part of it: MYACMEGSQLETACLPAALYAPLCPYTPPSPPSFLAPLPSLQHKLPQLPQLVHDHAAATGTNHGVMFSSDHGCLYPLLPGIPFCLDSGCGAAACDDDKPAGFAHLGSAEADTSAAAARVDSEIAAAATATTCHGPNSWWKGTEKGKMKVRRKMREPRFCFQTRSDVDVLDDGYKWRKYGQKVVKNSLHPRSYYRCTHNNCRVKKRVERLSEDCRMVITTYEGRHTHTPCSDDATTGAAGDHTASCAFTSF

Some of the results follow.

For this assay, the target named is OsWRKY34 (Oryza sativa, UniProt Q0JBA9 1-250). Put plainly: protein-binding microarray (RPBM); PBS, 2% BSA, 51.3 ng/ul salmon testes DNA, 50 uM zinc acetate, 200 nM TF, 25 C, 1 h; high values mean tight binding. As to conditions: protein: recombinant; tags: N-terminal polyhistidine and DsRed monomer fusion (pET32a); label: CyDye5-dUTP incorporated in the synthesized complementary strand; 3' TTTTT single-stranded linker to array surface; dsDNA, one strand shown. Put shortly:
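Per-feature fluorescence intensity (arbitrary units), read on an Axon 4000B scanner, is the binding signal. Transcription factors carrying an N-terminal polyhistidine tag and DsRed fusion were expressed in E. coli BL21-CodonPlus and purified on Ni–NTA. A custom Agilent array, made double-stranded by primer extension with Cy5-dUTP and blocked with 2% BSA, was incubated with 200 nM protein in PBS, 2% BSA, salmon testes DNA and 50 µM zinc acetate at 25 °C for 1 h and then washed.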
Take “AGATGAAAGGGGTTTGTGTGTCTTGTGCTATGCTTAAATTCGGAGTCACCTAGTGCAG”: the binding signal was 12400 fluorescence intensity (a.u.).
Under “TTGCAAAGGATCCGGATCCAACTATTAATGTCGCTGCAATCGGAGTCACCTAGTGCAG” stands 8270 fluorescence intensity (a.u.).
Take “AATCTGTTTTTTGCTTTTTTGCCCTTTTCACGGTTTTTCCCGGAGTCACCTAGTGCAG”: the binding signal is 10800 fluorescence intensity (a.u.).
Under “GTTGTTTGTGGTAGCGCTCTTTTTACAATTCCACATATTTCGGAGTCACCTAGTGCAG” stands 15300 fluorescence intensity (a.u.).
The same measure for “ACAAAATTTTCATCTCTTTCATGGATACGAATACGCTGCACGGAGTCACCTAGTGCAG”: 8140 fluorescence intensity (a.u.); for “ACCACCACCGCCATCAACGCCACCAACGTCGCCGCCGCCGCGGAGTCACCTAGTGCAG”: 11000 fluorescence intensity (a.u.); for “AGGGTTTGGGGTCAGCTACTTGGAACATTTGAAAATGGAACGGAGTCACCTAGTGCAG”: 10200 fluorescence intensity (a.u.).
Under “GCCCATAACTACTCTACCGCGCGTCTCCAGCCCACACGGACGGAGTCACCTAGTGCAG” stands 9180 fluorescence intensity (a.u.).
Turning to “TGCGGGTGTTGACCGGCCATATATATCTCGTAGACCTGCACGGAGTCACCTAGTGCAG”, the binding signal was 8610 fluorescence intensity (a.u.).
Consider “CCTTTTATTTCTCTTTAGATTTTTTATTTTGCAGTACATTCGGAGTCACCTAGTGCAG”, for which the binding signal was 9420 fluorescence intensity (a.u.).
Under “TGAATTGACCATCAGATTTGTCGATGTTTTTGTCATCTCGCGGAGTCACCTAGTGCAG” stands 8300 fluorescence intensity (a.u.).
Regarding “CTCCCTGGCGGCGCCACCCGTTTCTCTAATGCCGTCTTCTCGGAGTCACCTAGTGCAG”, the binding signal is 9440 fluorescence intensity (a.u.).
Under “ACTCTCATGCTCCTACTGTCCTCATTTGAACACATGTACACGGAGTCACCTAGTGCAG” stands 11000 fluorescence intensity (a.u.); under “ACATTGCTGATCTTGTCTATTCTTCATACAATATAAGTTTCGGAGTCACCTAGTGCAG”, 11200 fluorescence intensity (a.u.).
Under “CTGCGTTGGGTGCTGCCATTATATCCATTCCTCTCGCCACCGGAGTCACCTAGTGCAG” stands 8510 fluorescence intensity (a.u.); under “GGTTGTATGGTGTGCCTTTTGAGGGAAAGAGATGCAAATTCGGAGTCACCTAGTGCAG”, 12900 fluorescence intensity (a.u.); under “CTACTCCGGCCGCCTCGTGTTCAGCTCCGCCGGCGCCGCGCGGAGTCACCTAGTGCAG”, 13000 fluorescence intensity (a.u.).
The same measure for “GTTTATAAACTTAGTCAAACTTGAAACAGTTTGACTTTGACGGAGTCACCTAGTGCAG”: 12400 fluorescence intensity (a.u.).
On to “TCCTCCTACTTGCACCGCAGCCGCAGCCGCAGCCCACCACCGGAGTCACCTAGTGCAG”, for which the binding signal was 8200 fluorescence intensity (a.u.).
Under “ACGGGGTAGGGTGGGGAGGGGAAATAGGAGGAAGACGGGTCGGAGTCACCTAGTGCAG” stands 12000 fluorescence intensity (a.u.); under “CAGAGTGGACTTATTCCTTTCATTTTTCGATTTTCGTTGCCGGAGTCACCTAGTGCAG”, 9030 fluorescence intensity (a.u.).
Regarding “GCCGTGCGCGCGACGGAGGCGACAAGCGTGGTGAAGTGGTCGGAGTCACCTAGTGCAG”, the binding signal is 11800 fluorescence intensity (a.u.).
The same measure for “GTCGTTCCTCTGCCTCGTGGGCCTTGTGGCCGGCAGCCGGCGGAGTCACCTAGTGCAG”: 8360 fluorescence intensity (a.u.); for “TGTGCTTACCTAGTATAAATCTTTTCCTGTTATATTTTTCCGGAGTCACCTAGTGCAG”: 9210 fluorescence intensity (a.u.); for “ACCTGTCGGCACCGGGCGCGTAGCGCGTTCACGCCTCATCCGGAGTCACCTAGTGCAG”: 8050 fluorescence intensity (a.u.).
The same measure for “GGGCGGCTCCCCGGCGACCCCGCTCGGCCACCTCCGCCCGCGGAGTCACCTAGTGCAG”: 8670 fluorescence intensity (a.u.); for “GGGTGTGATCCATCTTATTCGTCTCACAAAATTCTTTTATCGGAGTCACCTAGTGCAG”: 12100 fluorescence intensity (a.u.); for “TGAAATTTTTCTCTGGGTTGGGTGTTCGGTGCAAGGCTTTCGGAGTCACCTAGTGCAG”: 11000 fluorescence intensity (a.u.).
Under “TCGGCGCAGCGGAGGGAGGGGAGGAAGGGTTTTGGAATTACGGAGTCACCTAGTGCAG” stands 8120 fluorescence intensity (a.u.); under “CTCTCCTCTGATCCTCTCTAATCATTCGTTGATTTCATTCCGGAGTCACCTAGTGCAG”, 8930 fluorescence intensity (a.u.).
Regarding “CACTCTCGTACCCACTTCAGTTTCTATAGGAGTTAGCTCTCGGAGTCACCTAGTGCAG”, the binding signal is 10200 fluorescence intensity (a.u.).
“GTGGGCTCTCTCGTTGGGTTGCTATCCGTCCACCCGTCCACGGAGTCACCTAGTGCAG”: the binding signal is 9020 fluorescence intensity (a.u.).
The same measure for “CTCCCACCCCAGCAGCGCCGCCGCCGCCGCCGCCGCCGCCCGGAGTCACCTAGTGCAG”: 10300 fluorescence intensity (a.u.); for “GATCCATCCATCCACCGTGTCTTCTCTTCCCTCTCCAATGCGGAGTCACCTAGTGCAG”: 8800 fluorescence intensity (a.u.); for “AGATTTCAATATTGTGATTTATCTATTCATGTGTTTCAATCGGAGTCACCTAGTGCAG”: 9980 fluorescence intensity (a.u.).
For “AAATTTGTTCTCTTGTCATTTTTTATTATTATATGCACATCGGAGTCACCTAGTGCAG”, the binding signal was 8550 fluorescence intensity (a.u.).
Under “AATTTACTTCCCTTACCTATTTCTTCTACATCTTACTCCTCGGAGTCACCTAGTGCAG” stands 8930 fluorescence intensity (a.u.); under “CACATATCCACCCACCCAGCACACAGACAGCAGCGACACACGGAGTCACCTAGTGCAG”, 8940 fluorescence intensity (a.u.).
The same measure for “GTTCTTCGTCGCCTCCATCCACATCGTCGTCGCCACCACCCGGAGTCACCTAGTGCAG”: 11300 fluorescence intensity (a.u.).
In the case of “CAAGATGGGTCGGGTTGGGTGGGGTTACTCGCACTAGCACCGGAGTCACCTAGTGCAG”, the binding signal is 22300 fluorescence intensity (a.u.).
Take “TCGCACGCCAAATTCACACGTGACAGCTACCGTCTTCTCGCGGAGTCACCTAGTGCAG”: the binding signal is 8760 fluorescence intensity (a.u.).
Take “TTTCTTGGTTCCTGTGTCTAAGCCAGCTGTAAACTTACAACGGAGTCACCTAGTGCAG”: the binding signal is 8450 fluorescence intensity (a.u.).
The same measure for “TCGGGTCGGTCCGCGCCGCCGCGAACCTCTCGTCCTCCATCGGAGTCACCTAGTGCAG”: 8470 fluorescence intensity (a.u.); for “ACTGAACATGTTTGACCGTTCGTCTTATTCAAAAATTTTTCGGAGTCACCTAGTGCAG”: 11200 fluorescence intensity (a.u.).
The same measure for “ACTACCTCTTTTGATTTTTGGGTATACGTTTGACCATTCGCGGAGTCACCTAGTGCAG”: 10800 fluorescence intensity (a.u.); for “CTATACCTGGTCCCATCTGTCATACACACATTACGTTTTGCGGAGTCACCTAGTGCAG”: 8730 fluorescence intensity (a.u.); for “CATCACCAGCCTCACCTTCGCCTCCACCTCCTCCGCGCTCCGGAGTCACCTAGTGCAG”: 10900 fluorescence intensity (a.u.).
Under “TATATACTGCACTTCTGCCCTATACACTGTATTTGTATTTCGGAGTCACCTAGTGCAG” stands 12800 fluorescence intensity (a.u.); under “TGTTTATAGTTTAGCTTTGCTCATTACTAGCTATATTCTGCGGAGTCACCTAGTGCAG”, 8090 fluorescence intensity (a.u.); under “GCATTTCGGCGAAGCCTACTTTTGATGATGGCATGTATCCCGGAGTCACCTAGTGCAG”, 8930 fluorescence intensity (a.u.).
In the case of “TCATGTGTTTGCGAGCAGCTCTTGCTCTGTTATTCACATGCGGAGTCACCTAGTGCAG”, the binding signal was 8400 fluorescence intensity (a.u.).
The same measure for “ATTTACTCCTCGTTCCACCTTCCCCGCTTCAATTCGCCTCCGGAGTCACCTAGTGCAG”: 8180 fluorescence intensity (a.u.); for “GACTTTTCTTATACTTTTTCCATCCCATAAAAAACTACTACGGAGTCACCTAGTGCAG”: 8210 fluorescence intensity (a.u.).
Consider “ATCTCTGCTCAGTTTCTTTTTTCTGCTTGAACTTGAACATCGGAGTCACCTAGTGCAG”, for which the binding signal was 9940 fluorescence intensity (a.u.).
